Laboratory results as given in the supplement of paper PMC10849652.
This is one part of the list.

Chains of the proteins cited; added tags and fusions are not shown. Lines headed by an entry give the natural chain unless they say otherwise; changes in a name come on top.
UniProt P47224: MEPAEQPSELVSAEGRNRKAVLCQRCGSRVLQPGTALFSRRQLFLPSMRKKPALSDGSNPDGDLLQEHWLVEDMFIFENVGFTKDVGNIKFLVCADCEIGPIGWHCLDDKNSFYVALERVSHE
UniProt Q9UKM9: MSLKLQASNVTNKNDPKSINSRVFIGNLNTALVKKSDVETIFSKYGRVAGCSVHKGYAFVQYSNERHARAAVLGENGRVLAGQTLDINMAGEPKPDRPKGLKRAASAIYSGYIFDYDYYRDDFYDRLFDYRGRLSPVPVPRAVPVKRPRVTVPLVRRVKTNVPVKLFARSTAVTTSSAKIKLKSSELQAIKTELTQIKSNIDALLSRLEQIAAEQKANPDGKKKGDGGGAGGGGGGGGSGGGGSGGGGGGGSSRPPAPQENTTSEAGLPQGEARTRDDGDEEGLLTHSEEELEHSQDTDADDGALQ
UniProt Q3YEC7: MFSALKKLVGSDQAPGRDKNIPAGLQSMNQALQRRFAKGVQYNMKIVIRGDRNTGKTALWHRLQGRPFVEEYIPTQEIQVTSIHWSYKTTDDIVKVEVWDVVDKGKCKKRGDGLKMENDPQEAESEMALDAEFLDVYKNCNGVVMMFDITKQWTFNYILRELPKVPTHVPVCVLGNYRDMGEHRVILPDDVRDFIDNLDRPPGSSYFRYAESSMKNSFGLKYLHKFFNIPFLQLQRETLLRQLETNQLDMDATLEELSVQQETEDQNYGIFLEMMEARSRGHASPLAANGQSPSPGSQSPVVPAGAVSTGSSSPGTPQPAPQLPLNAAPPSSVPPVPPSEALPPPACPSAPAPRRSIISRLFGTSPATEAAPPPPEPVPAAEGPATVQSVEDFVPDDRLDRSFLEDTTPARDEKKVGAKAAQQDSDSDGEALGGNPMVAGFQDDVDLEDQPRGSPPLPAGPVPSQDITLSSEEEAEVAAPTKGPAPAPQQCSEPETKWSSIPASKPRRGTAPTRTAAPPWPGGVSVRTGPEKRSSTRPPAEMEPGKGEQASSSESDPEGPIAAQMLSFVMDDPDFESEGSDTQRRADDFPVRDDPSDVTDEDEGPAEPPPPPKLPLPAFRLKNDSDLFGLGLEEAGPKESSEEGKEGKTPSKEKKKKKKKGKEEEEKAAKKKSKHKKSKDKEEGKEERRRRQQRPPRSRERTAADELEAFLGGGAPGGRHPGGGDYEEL
UniProt Q9H6Z4: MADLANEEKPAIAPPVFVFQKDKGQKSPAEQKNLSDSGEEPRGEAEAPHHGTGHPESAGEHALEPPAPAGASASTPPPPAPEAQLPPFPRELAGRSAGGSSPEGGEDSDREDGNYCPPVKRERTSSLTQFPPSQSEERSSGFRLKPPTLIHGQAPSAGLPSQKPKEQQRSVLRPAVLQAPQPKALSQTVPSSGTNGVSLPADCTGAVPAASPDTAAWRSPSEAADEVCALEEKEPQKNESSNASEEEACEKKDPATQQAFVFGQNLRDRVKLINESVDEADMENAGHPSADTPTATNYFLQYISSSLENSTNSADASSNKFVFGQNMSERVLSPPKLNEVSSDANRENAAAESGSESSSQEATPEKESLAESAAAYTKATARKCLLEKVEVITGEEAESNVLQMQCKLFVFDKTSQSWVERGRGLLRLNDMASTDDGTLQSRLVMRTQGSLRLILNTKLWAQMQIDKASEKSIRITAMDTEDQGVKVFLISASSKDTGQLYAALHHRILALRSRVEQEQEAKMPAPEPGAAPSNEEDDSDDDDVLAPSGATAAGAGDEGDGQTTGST
UniProt P49023, whole entry, looked up: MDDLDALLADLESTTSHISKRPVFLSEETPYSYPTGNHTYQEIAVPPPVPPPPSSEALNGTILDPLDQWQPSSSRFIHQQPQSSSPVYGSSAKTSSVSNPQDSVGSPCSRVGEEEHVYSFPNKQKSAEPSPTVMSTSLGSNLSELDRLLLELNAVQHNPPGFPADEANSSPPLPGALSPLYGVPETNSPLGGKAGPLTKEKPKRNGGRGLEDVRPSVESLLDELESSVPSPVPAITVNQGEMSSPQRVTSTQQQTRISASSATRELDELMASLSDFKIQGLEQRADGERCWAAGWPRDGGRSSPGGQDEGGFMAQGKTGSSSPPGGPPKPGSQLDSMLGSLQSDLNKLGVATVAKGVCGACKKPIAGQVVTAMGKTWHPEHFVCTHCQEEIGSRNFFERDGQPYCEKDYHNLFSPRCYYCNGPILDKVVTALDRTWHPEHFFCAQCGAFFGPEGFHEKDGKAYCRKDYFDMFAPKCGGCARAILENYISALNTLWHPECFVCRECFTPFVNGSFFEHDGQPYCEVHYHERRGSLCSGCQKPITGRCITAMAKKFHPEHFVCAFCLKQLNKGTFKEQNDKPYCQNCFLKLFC
UniProt Q13637: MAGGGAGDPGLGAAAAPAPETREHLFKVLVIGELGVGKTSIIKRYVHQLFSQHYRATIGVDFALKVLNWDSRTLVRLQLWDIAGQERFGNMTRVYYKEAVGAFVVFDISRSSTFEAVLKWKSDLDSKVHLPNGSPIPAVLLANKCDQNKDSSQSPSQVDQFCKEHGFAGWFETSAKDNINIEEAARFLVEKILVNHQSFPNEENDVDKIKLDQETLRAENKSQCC
UniProt Q53S08: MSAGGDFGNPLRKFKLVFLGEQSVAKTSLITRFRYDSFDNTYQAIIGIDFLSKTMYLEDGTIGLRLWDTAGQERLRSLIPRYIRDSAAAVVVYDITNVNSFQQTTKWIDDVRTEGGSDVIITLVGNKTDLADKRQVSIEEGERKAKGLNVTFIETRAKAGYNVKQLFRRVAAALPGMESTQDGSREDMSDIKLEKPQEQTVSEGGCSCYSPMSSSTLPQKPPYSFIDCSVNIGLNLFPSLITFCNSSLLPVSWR
UniProt P62491: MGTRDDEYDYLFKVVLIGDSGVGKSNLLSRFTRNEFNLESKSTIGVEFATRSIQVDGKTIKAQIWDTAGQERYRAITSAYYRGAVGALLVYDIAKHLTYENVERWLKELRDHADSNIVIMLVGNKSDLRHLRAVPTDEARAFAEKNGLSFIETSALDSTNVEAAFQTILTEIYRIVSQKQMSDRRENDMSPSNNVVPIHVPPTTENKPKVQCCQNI
UniProt Q9BRP8: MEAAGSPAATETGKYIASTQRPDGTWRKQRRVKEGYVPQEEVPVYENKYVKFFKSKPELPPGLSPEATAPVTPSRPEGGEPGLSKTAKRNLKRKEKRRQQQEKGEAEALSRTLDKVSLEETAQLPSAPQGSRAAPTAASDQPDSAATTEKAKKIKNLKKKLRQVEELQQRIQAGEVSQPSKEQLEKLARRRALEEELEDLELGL
UniProt Q96S59, whole entry, looked up: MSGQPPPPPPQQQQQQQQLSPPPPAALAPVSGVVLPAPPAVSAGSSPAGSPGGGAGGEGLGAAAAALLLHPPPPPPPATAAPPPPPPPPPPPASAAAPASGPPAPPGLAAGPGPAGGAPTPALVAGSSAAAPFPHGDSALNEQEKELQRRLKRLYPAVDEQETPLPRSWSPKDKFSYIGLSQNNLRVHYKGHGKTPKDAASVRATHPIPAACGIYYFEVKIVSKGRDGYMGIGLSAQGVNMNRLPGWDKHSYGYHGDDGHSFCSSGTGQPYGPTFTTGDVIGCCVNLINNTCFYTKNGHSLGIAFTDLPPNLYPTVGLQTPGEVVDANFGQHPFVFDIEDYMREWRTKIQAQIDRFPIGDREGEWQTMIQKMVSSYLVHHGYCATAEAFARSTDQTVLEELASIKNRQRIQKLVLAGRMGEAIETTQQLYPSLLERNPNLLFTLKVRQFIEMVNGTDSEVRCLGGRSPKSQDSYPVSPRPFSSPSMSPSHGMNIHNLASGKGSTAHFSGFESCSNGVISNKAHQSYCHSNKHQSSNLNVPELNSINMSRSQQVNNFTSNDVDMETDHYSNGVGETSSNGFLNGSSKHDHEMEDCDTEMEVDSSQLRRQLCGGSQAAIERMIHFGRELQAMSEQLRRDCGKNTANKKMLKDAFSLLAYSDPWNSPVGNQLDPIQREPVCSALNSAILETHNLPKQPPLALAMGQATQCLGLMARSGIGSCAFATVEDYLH
UniProt O60216: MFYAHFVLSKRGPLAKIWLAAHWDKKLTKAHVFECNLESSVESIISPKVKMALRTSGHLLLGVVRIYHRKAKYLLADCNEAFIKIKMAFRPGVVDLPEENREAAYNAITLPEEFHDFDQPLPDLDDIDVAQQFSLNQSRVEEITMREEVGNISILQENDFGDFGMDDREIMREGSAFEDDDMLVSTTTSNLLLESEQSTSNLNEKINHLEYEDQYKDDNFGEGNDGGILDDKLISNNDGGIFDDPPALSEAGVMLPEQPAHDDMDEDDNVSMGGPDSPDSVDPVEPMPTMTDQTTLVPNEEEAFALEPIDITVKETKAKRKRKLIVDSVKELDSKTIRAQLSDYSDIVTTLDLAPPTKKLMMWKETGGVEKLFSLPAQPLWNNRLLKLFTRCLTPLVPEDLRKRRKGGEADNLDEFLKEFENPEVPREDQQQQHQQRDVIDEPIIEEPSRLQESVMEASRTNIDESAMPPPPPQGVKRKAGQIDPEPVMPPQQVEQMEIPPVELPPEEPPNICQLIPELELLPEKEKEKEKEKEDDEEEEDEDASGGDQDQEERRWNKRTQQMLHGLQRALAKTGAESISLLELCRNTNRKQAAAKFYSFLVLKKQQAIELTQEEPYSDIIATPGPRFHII
UniProt P11216: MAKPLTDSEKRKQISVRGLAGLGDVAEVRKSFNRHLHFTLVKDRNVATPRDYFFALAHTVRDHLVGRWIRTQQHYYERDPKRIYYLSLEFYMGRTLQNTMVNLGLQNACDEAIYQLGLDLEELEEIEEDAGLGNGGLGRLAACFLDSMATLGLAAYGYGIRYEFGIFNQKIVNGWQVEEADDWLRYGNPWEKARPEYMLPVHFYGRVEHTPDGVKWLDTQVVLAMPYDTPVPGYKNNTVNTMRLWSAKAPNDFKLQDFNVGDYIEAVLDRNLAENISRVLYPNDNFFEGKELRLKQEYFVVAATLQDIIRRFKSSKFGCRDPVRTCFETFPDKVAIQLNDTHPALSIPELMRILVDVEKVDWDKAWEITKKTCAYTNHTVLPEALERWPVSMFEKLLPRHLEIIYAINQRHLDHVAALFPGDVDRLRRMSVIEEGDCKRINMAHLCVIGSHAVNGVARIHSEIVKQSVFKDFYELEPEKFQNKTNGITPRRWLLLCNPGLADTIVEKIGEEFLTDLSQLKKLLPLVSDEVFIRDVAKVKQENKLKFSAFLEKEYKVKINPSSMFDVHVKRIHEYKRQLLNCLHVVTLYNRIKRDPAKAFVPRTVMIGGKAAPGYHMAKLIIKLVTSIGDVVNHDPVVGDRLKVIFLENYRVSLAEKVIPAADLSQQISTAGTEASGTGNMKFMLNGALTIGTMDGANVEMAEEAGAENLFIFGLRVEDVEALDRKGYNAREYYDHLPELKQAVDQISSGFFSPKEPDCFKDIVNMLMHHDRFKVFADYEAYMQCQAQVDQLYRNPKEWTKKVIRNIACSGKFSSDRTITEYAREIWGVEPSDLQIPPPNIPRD
UniProt Q13636: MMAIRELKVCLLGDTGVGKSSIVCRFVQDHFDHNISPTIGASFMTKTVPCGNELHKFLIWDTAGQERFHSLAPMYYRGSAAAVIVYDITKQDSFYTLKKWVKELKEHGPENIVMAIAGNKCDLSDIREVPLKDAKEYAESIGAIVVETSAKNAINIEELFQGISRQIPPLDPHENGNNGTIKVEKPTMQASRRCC

Tests used:
Assay in all cases: log2 fold change, soluble protein after heating vs DMSO (PISA); higher = thermal stabilisation; K562 lysate, 10 uM; active = over 0.2 and 3.5 SD of the protein, either way, in both replicates (recomputed)
alvocidib = compound: CN1CC[C@H](c2c(O)cc(O)c3c(=O)cc(-c4ccccc4Cl)oc23)[C@H](O)C1 [alvocidib]
Method in brief: (§1)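 Following dounce homogenisation of K562 pellets in PBS pH 7.4 with 1 mM MgCl2, crude extract at 1 mg/mL protein was incubated for 30 min with 10 μM compound. Aliquots were then heated for 3 min over 48°C-58°C and pooled, NP-40 was added to 0.5% at 4°C, and soluble protein was recovered as the supernatant at 21,000xg for 90 min. Channel-sum-equalised TMTpro 16plex LC-MS/MS quantified this protein. Each value, from duplicates, is a log-two fold change in thermal stability relative to solvent controls.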

Tubastatin A = compound: CN1CCc2c(c3ccccc3n2Cc2ccc(C(=O)NO)cc2)C1 [Tubastatin A]
Method in brief: as §1

[1] = compound: CNC(=O)C1=CC=CC=C1NC2=NC(=NC=C2Cl)NC3=C(C=C(C=C3)N4CCOCC4)OC
Method in brief: as §1

defactinib = compound: CNC(=O)c1ccc(Nc2ncc(C(F)(F)F)c(NCc3nccnc3N(C)S(C)(=O)=O)n2)cc1 [defactinib]
Method in brief: as §1

[2] = compound: CNc1nc(-c2ccc3c(N)n[nH]c3c2)cc(N2C[C@@H](C(=O)NC3CCCCC3)CC[C@H]2C)n1
Method in brief: as §1

encorafenib = compound: COC(=O)N[C@@H](C)CNc1nccc(-c2cn(C(C)C)nc2-c2cc(Cl)cc(NS(C)(=O)=O)c2F)n1 [encorafenib]
Method in brief: as §1

[3] = compound: COC(=O)[C@H](CCSC)NC(=O)C1=C(C=C(C=C1)NC[C@H](CS)N)C2=CC=CC=C2
Method in brief: as §1

alisertib = compound: COc1cc(Nc2ncc3c(n2)-c2ccc(Cl)cc2C(c2c(F)cccc2OC)=NC3)ccc1C(=O)O [alisertib]
Method in brief: as §1

[4] = compound: COc1cc2nc(-c3cc(F)ccc3O)nc(N[C@@H]3CNC[C@H]3C(C)(C)O)c2cc1OC
Method in brief: as §1

gefitinib = compound: COc1cc2ncnc(Nc3ccc(F)c(Cl)c3)c2cc1OCCCN1CCOCC1 [gefitinib]
Method in brief: as §1

lapatinib = compound: CS(=O)(=O)CCNCc1ccc(-c2ccc3ncnc(Nc4ccc(OCc5cccc(F)c5)c(Cl)c4)c3c2)o1 [lapatinib]
Method in brief: as §1

pictilisib = compound: CS(=O)(=O)N1CCN(Cc2cc3nc(-c4cccc5[nH]ncc45)nc(N4CCOCC4)c3s2)CC1 [pictilisib]
Method in brief: as §1

crizotinib = compound: C[C@@H](Oc1cc(-c2cnn(C3CCNCC3)c2)cnc1N)c1c(Cl)ccc(F)c1Cl [crizotinib]
Method in brief: as §1

[5] = compound: C[C@H](C1=CC=C(C=C1)C(=O)NC2=C3C=CNC3=NC=C2)N
Method in brief: as §1

duvelisib = compound: C[C@H](Nc1ncnc2nc[nH]c12)c1cc2cccc(Cl)c2c(=O)n1-c1ccccc1 [duvelisib]
Method in brief: as §1

gandotinib = compound: Cc1cc(Nc2cc(CN3CCOCC3)c3nc(C)c(Cc4ccc(Cl)cc4F)n3n2)n[nH]1 [gandotinib]
Method in brief: as §1

tozasertib = compound: Cc1cc(Nc2cc(N3CCN(C)CC3)nc(Sc3ccc(NC(=O)C4CC4)cc3)n2)n[nH]1 [tozasertib]
Method in brief: as §1

doramapimod = compound: Cc1ccc(-n2nc(C(C)(C)C)cc2NC(=O)Nc2ccc(OCCN3CCOCC3)c3ccccc23)cc1 [doramapimod]
Method in brief: as §1

bafetinib = compound: Cc1ccc(NC(=O)c2ccc(CN3CC[C@H](N(C)C)C3)c(C(F)(F)F)c2)cc1Nc1nccc(-c2cncnc2)n1 [bafetinib]
Method in brief: as §1

[6] = compound: Cc1cccc(CC(=O)N2CCc3c2ccc(-c2cn(C)c4ncnc(N)c24)c3F)n1
Method in brief: as §1

Measured: log2 fold change

RABIF (UniProt P47224)
inactive: alvocidib -0.04 | Tubastatin A 0.036 | [1] 0.009 | defactinib 0.02 | [2] 0.017 | encorafenib 0.001 | [3] -0.015 | alisertib -0.038 | [4] 0.01 | gefitinib -0.003 | lapatinib 0.065 | pictilisib -0.015 | crizotinib 0 | [5] 0.031 | duvelisib 0.016 | gandotinib -0.007 | tozasertib 0.069 | doramapimod 0.013 | bafetinib 0.054 | [6] 0.04

RABEP1 (UniProt Q15276)
inactive: alvocidib -0.015 | Tubastatin A 0.036 | [1] -0.048 | defactinib -0.018 | [2] 0.047 | encorafenib 0.005 | [3] -0.031 | alisertib -0.012 | [4] 0.013 | gefitinib 0.02 | lapatinib 0.002 | pictilisib 0.001 | crizotinib 0.029 | [5] -0.015 | duvelisib 0.006 | gandotinib 0.049 | tozasertib 0.002 | doramapimod -0.014 | bafetinib -0.04 | [6] 0.015

RALY (UniProt Q9UKM9)
inactive: alvocidib 0.037 | Tubastatin A -0.009 | [1] -0.004 | defactinib 0.019 | [2] -0.044 | encorafenib 0.016 | [3] 0.095 | alisertib -0.007 | [4] 0.014 | gefitinib -0.054 | lapatinib 0.027 | pictilisib -0.024 | crizotinib -0.055 | [5] 0.034 | duvelisib 0.051 | gandotinib -0.11 | tozasertib -0.058 | doramapimod -0.036 | bafetinib 0.053 | [6] -0.037

Quoted at random: two records from the list
RABEP1 (UniProt Q15276)
inactive: alvocidib -0.015 | Tubastatin A 0.036 | [1] -0.048 | defactinib -0.018 | [2] 0.047 | encorafenib 0.005 | [3] -0.031 | alisertib -0.012 | [4] 0.013 | gefitinib 0.02 | lapatinib 0.002 | pictilisib 0.001 | crizotinib 0.029 | [5] -0.015 | duvelisib 0.006 | gandotinib 0.049 | tozasertib 0.002 | doramapimod -0.014 | bafetinib -0.04 | [6] 0.015

RALY (UniProt Q9UKM9)
inactive: alvocidib 0.037 | Tubastatin A -0.009 | [1] -0.004 | defactinib 0.019 | [2] -0.044 | encorafenib 0.016 | [3] 0.095 | alisertib -0.007 | [4] 0.014 | gefitinib -0.054 | lapatinib 0.027 | pictilisib -0.024 | crizotinib -0.055 | [5] 0.034 | duvelisib 0.051 | gandotinib -0.11 | tozasertib -0.058 | doramapimod -0.036 | bafetinib 0.053 | [6] -0.037

Additional results.

RABL6 (UniProt Q3YEC7)
inactive: alvocidib -0.041 | Tubastatin A 0.01 | [1] 0.056 | defactinib 0.019 | [2] -0.007 | encorafenib 0.023 | [3] -0.026 | alisertib 0.011 | [4] -0.021 | gefitinib 0.016 | lapatinib 0.031 | pictilisib -0.013 | crizotinib 0.016 | [5] -0.04 | duvelisib -0.004 | gandotinib 0.062 | tozasertib 0.014 | doramapimod 0.038 | bafetinib -0.018 | [6] 0.014

RABGAP1L isoform 5 (UniProt Q5R372)
inactive: alvocidib -0.065 | Tubastatin A 0.067 | [1] -0.03 | defactinib 0.055 | [2] 0.066 | encorafenib 0.01 | [3] -0.096 | alisertib -0.053 | [4] 0 | gefitinib 0.009 | lapatinib -0.022 | pictilisib -0.01 | crizotinib -0.016 | [5] 0.054 | duvelisib 0.019 | gandotinib 0.011 | tozasertib 0.013 | doramapimod 0.042 | bafetinib 0.037 | [6] 0.003

RANBP3 (UniProt Q9H6Z4)
inactive: alvocidib -0.011 | Tubastatin A 0.03 | [1] 0.022 | defactinib 0 | [2] 0.018 | encorafenib -0.035 | [3] -0.029 | alisertib 0.003 | [4] 0.019 | gefitinib 0.004 | lapatinib -0.005 | pictilisib -0.021 | crizotinib 0.002 | [5] -0.01 | duvelisib 0.008 | gandotinib 0.04 | tozasertib -0.024 | doramapimod -0.002 | bafetinib 0.004 | [6] 0.005

PXN isoform 3 (UniProt P49023)
inactive: alvocidib 0.003 | Tubastatin A -0.013 | [1] 0.045 | defactinib -0.001 | [2] 0.025 | encorafenib -0.013 | [3] -0.098 | alisertib -0.004 | [4] -0.027 | gefitinib -0.024 | lapatinib 0.071 | pictilisib 0.01 | crizotinib -0.027 | [5] 0.019 | duvelisib 0 | gandotinib 0.07 | tozasertib 0.018 | doramapimod 0.045 | bafetinib 0.039 | [6] -0.024

RAB32 (UniProt Q13637)
inactive: alvocidib 0.057 | Tubastatin A 0.052 | [1] -0.016 | defactinib 0.029 | [2] -0.039 | encorafenib 0 | [3] -0.043 | alisertib -0.035 | [4] -0.041 | gefitinib 0.042 | lapatinib 0.015 | pictilisib 0.015 | crizotinib -0.042 | [5] -0.313 | duvelisib 0.003 | gandotinib 0.119 | tozasertib -0.022 | doramapimod -0.022 | bafetinib -0.022 | [6] 0.13

RAB6D (UniProt Q53S08)
inactive: alvocidib -0.029 | Tubastatin A 0.078 | [1] 0.024 | defactinib 0.077 | [2] 0.087 | encorafenib 0.023 | [3] -0.034 | alisertib -0.149 | [4] 0.062 | gefitinib 0.027 | lapatinib 0.005 | pictilisib -0.008 | crizotinib -0.036 | [5] -0.058 | duvelisib 0 | gandotinib 0.189 | tozasertib 0.015 | doramapimod -0.001 | bafetinib -0.136 | [6] 0.154

RAB11A (UniProt P62491)
inactive: alvocidib 0.084 | Tubastatin A 0.045 | [1] 0.009 | defactinib 0.024 | [2] 0.085 | encorafenib -0.014 | [3] 0.018 | alisertib -0.03 | [4] 0.004 | gefitinib -0.052 | lapatinib 0.075 | pictilisib -0.076 | crizotinib -0.024 | [5] 0.119 | duvelisib -0.011 | gandotinib -0.132 | tozasertib -0.013 | doramapimod -0.024 | bafetinib 0.065 | [6] -0.039

PYM1 (UniProt Q9BRP8)
inactive: alvocidib -0.05 | Tubastatin A 0.094 | [1] 0.017 | defactinib 0.004 | [2] 0.1 | encorafenib 0.04 | [3] -0.071 | alisertib -0.007 | [4] 0.005 | gefitinib -0.042 | lapatinib 0.019 | pictilisib 0.008 | crizotinib -0.011 | [5] -0.004 | duvelisib -0.05 | gandotinib 0.003 | tozasertib 0.004 | doramapimod 0.051 | bafetinib 0.012 | [6] 0.036

RANBP9 (UniProt Q96S59)
inactive: alvocidib -0.002 | Tubastatin A -0.036 | [1] -0.018 | defactinib -0.03 | [2] 0.017 | encorafenib 0.03 | [3] 0.001 | alisertib -0.005 | [4] -0.009 | gefitinib -0.019 | lapatinib -0.021 | pictilisib 0.03 | crizotinib -0.015 | [5] -0.004 | duvelisib 0 | gandotinib -0.022 | tozasertib -0.003 | doramapimod 0.015 | bafetinib -0.025 | [6] 0.063

RAD21 (UniProt O60216)
inactive: alvocidib -0.006 | Tubastatin A -0.008 | [1] 0.007 | defactinib 0.021 | [2] -0.027 | encorafenib -0.017 | [3] -0.016 | alisertib -0.012 | [4] 0 | gefitinib 0.042 | lapatinib 0.027 | pictilisib -0.005 | crizotinib 0.024 | [5] 0.01 | duvelisib 0.001 | gandotinib 0.041 | tozasertib -0.015 | doramapimod 0.005 | bafetinib 0.012 | [6] 0.001

PYGB (UniProt P11216)
inactive: alvocidib 0.084 | Tubastatin A -0.003 | [1] -0.005 | defactinib -0.006 | [2] -0.084 | encorafenib -0.001 | [3] -0.018 | alisertib -0.011 | [4] -0.005 | gefitinib 0.016 | lapatinib -0.015 | pictilisib 0.008 | crizotinib -0.018 | [5] 0.048 | duvelisib -0.019 | gandotinib -0.077 | tozasertib 0.085 | doramapimod 0 | bafetinib -0.019 | [6] -0.069

RAB31 (UniProt Q13636)
inactive: alvocidib -0.011 | Tubastatin A 0.047 | [1] 0 | defactinib 0.037 | [2] 0.038 | encorafenib -0.001 | [3] -0.026 | alisertib -0.013 | [4] 0.083 | gefitinib -0.021 | lapatinib -0.001 | pictilisib -0.006 | crizotinib 0.004 | [5] -0.045 | duvelisib -0.058 | gandotinib 0.009 | tozasertib 0.024 | doramapimod -0.003 | bafetinib -0.014 | [6] 0.04
